Some of the results follow. Values are raw readings; no control value is given beside them.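 In the initial screen, polymyxin B was used at a concentration that permeabilizes Salmonella's outer membrane but not its inner membrane. Maximum growth was set by DMSO wells with or without polymyxin B. Since plates varied, data were ranked per plate, and compounds giving the lowest OD600 advanced as hits.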
Tested on: Salmonella enterica serovar Typhimurium SL1344
Assay: bacterial growth OD600 after 18 h with compound and polymyxin B; higher = more bacterial growth (less inhibition)
Conditions: 50 µM, Mueller-Hinton broth

Compound: COC(=O)CCC(=O)NC1CCCc2c1cnn2-c1ccc(C)c(C)c1 (stereo unspecified)
- bacterial growth OD600 (polymyxin B 0.75 µg/mL): 0.756

Compound: O=C1O[C@@H]2CN(Cc3cccnc3)C[C@@H]2N1CCCc1ccc(F)cc1
- bacterial growth OD600 (polymyxin B 0.75 µg/mL): 0.873

Compound: O=C1CCCN1CC1CCN(c2ccc(-c3nc(C4CC4)no3)cn2)CC1
- bacterial growth OD600 (polymyxin B 1 µg/mL): 0.908

Compound: Cc1ccc(SC2CCN(C(=O)c3cn(Cc4ccccc4F)nn3)CC2)cc1
- bacterial growth OD600 (polymyxin B 1 µg/mL): 0.106

Compound: Cc1c(CN2Cc3ccccc3OC(c3ccccc3F)C2)cnn1C (stereo unspecified)
- bacterial growth OD600 (polymyxin B 0.75 µg/mL): 0.001

Compound: CCOc1cccc(CN2CCC(CCC(=O)Nc3ccc(OC)cc3OC)CC2)c1
- bacterial growth OD600 (polymyxin B 1 µg/mL): 0.886

Compound: CN(C(=O)c1cccc2nccnc12)C1CCCN(CCCc2ccccc2)C1 (stereo unspecified)
- bacterial growth OD600 (polymyxin B 1 µg/mL): 0.808

Compound: O=C(c1ccc(=O)[nH]n1)N1CCC(C2CCN(Cc3cccc(F)c3F)CC2)C1 (stereo unspecified)
- bacterial growth OD600 (polymyxin B 0.75 µg/mL): 0.983

Compound: Cc1cc(C)n(-c2cccc(CN(C)C(=O)C3CC(Cc4ccc(F)cc4)=NO3)c2)n1 (stereo unspecified)
- bacterial growth OD600 (polymyxin B 0.75 µg/mL): 0.462

Compound: CC(NC(=O)c1cn(CCC2CCCCC2)nn1)c1cnn(C)c1 (stereo unspecified)
- bacterial growth OD600 (polymyxin B 1 µg/mL): 0.844

Compound: COCC(=O)N1CCC(C(=O)Nc2cccc(-c3cccc(Cl)c3)c2)CC1
- bacterial growth OD600 (polymyxin B 1 µg/mL): 0.834

Compound: Cc1ccc(Oc2ncccc2CNC(=O)c2ccc3cc[nH]c3c2)cn1
- bacterial growth OD600 (polymyxin B 1 µg/mL): 1.07

Compound: C=C(C)CNC(=O)c1coc(COc2cccc3cccnc23)n1
- bacterial growth OD600 (polymyxin B 1 µg/mL): 0.953

Compound: O=C(CCn1cncn1)N(CC1CCN(C2Cc3ccccc3C2)CC1)CC1CCCO1 (stereo unspecified)
- bacterial growth OD600 (polymyxin B 1 µg/mL): 0.854

Compound: COc1cc(C)ccc1OCc1nc(C(=O)NCc2csc(C)n2)co1
- bacterial growth OD600 (polymyxin B 0.75 µg/mL): 0.803

Compound: COc1cccc(C(=O)N2CCN(C(=O)CCC3(Cc4ccc(SC)cc4)CCC(=O)N3)CC2)c1 (stereo unspecified)
- bacterial growth OD600 (polymyxin B 0.75 µg/mL): 0.785

Compound: CO[C@H]1[C@H](NC(=O)Cc2cccs2)c2ccccc2C12CCN(Cc1cc(F)ccc1F)CC2
- bacterial growth OD600 (polymyxin B 0.75 µg/mL): 0.751

Compound: CCn1cc(CN2CCC(C(Cc3ccccc3Cl)N(C)C(=O)c3ccco3)CC2)c(C)n1 (stereo unspecified)
- bacterial growth OD600 (polymyxin B 0.75 µg/mL): 0.825

Compound: CCNC(=O)NC(C)c1cnc(N2CCCCCCC2)nc1C (stereo unspecified)
- bacterial growth OD600 (polymyxin B 0.75 µg/mL): 0.551

Compound: CCOC(=O)CNC(=O)NC1CC(=O)N(Cc2ccccc2Cl)C1 (stereo unspecified)
- bacterial growth OD600 (polymyxin B 1 µg/mL): 1.08

Compound: O=C(NCc1ccccn1)c1cccc(OC2CCN(C(=O)C3CCCCC3)CC2)c1
- bacterial growth OD600 (polymyxin B 1 µg/mL): 0.819
